The other results are listed elsewhere or left out. Some results for these compounds are left out of this collection, so the calls shown say nothing about other tests.
Assay: inhibitors of hepatocyte lipid droplet formation, primary screen, imaging, high-throughput imaging, BODIPY stain (AID 1656);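 note: cells counted across two imaged fields per well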
Conditions: AML12 mouse hepatocytes, oleate lipid droplets, measured here: cell count, cytotoxicity flag, at 6.5 µM
Outline: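 Material – AML12 mouse liver cells · Also added – oleate loading, 100 µM · Compound dosing – 6.5 µM single-point dosing · Times – overnight treatment with compound plus oleate · Measured by – fluorescence imaging, 20x objective, two fields per well · Read-out – percent inhibition of filter-corrected integrated lipid droplet intensity per well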

Q: With `O=C(OC1CN2CCC1CC2)C(CO)(c1ccccc1)c1ccccc1` (stereo unspecified) as the molecule, how does the cell count read?
A: 709 cells

Q: With `COc1ccc(Br)c(C(=O)NCC2(N3CCCCC3)CCCCC2)c1` as the molecule, how does the cell count read?
A: 711 cells

Q: With `CN(C)C1(CNC(=O)c2ccc(Br)cc2)CCCCC1` as the molecule, how does the cell count read?
A: 827 cells

Q: Which cell count does the source give for `COc1cc(C(=O)NCC2(N(C)C)CCCCC2)c([N+](=O)[O-])cc1OC` here?
A: 858 cells

Q: Which cell count does the source give for `COc1ccc(Cl)cc1C(=O)NCC1(N(C)C)CCCCC1` here?
A: 777 cells

Q: With `COc1cccc(C(=O)NCC2(N3CCCCC3)CCCCC2)c1` as the molecule, how does the cell count read?
A: 683 cells

Q: For `O=C(NCC1(N2CCCCC2)CCCCC1)c1cccc(Cl)c1`, which cell count is on record?
A: 782 cells

Q: For `CN(C)c1ccc(C(=O)NCC2(N(C)C)CCCCC2)cc1`, which cell count is on record?
A: 833 cells

Q: With `CN(C)C1CCCC1OC(=O)C(O)(c1ccccc1)c1ccccc1` (stereo unspecified) as the molecule, how does the cell count read?
A: 672 cells

Q: For `Cc1ccccc1C(=O)NCC1(N2CCCCC2)CCCCC1`, which cell count is on record?
A: 685 cells

Q: With `O=C(NCC1(N2CCCCC2)CCCCC1)c1cc(F)c(F)cc1Cl` as the molecule, how does the cell count read?
A: 768 cells

Q: With `C=CCN1CCN(CCOC(=O)C(O)(c2ccccc2)c2ccccc2)CC1` as the molecule, how does the cell count read?
A: 733 cells

Q: Which cell count does the source give for `COc1ccc(C(=O)NCC2(N(C)C)CCCCC2)cc1` here?
A: 690 cells

Q: For `O=C(NCC1(N2CCCCC2)CCCCC1)c1cccc(Br)c1`, which cell count is on record?
A: 831 cells

Q: Which cell count does the source give for `CCN1CCCC(OC(=O)C2(O)c3ccccc3C=Cc3ccccc32)C1` (stereo unspecified) here?
A: 710 cells

Q: For `Cc1cc(C(=O)NCC2(N3CCCCC3)CCCCC2)ccc1[N+](=O)[O-]`, which cell count is on record?
A: 843 cells

Q: Which cell count does the source give for `O=C(NCC1(N2CCCCC2)CCCCC1)c1cc([N+](=O)[O-])ccc1Cl` here?
A: 687 cells

Q: For `CN1[C@@H]2CC[C@H]1CC(OC(=O)C(O)(c1ccccc1)c1ccccc1)C2` (stereo partly specified), which cell count is on record?
A: 798 cells

Q: Which cell count does the source give for `COc1cc(SC)ccc1C(=O)NCC1(N(C)C)CCCCC1` here?
A: 847 cells

Q: With `CCN(CC)CC(C)C(C)OC(=O)C(O)(c1ccccc1)c1ccccc1` (stereo unspecified) as the molecule, how does the cell count read?
A: 715 cells

Q: Which cell count does the source give for `Cc1ccc(C(=O)NCC2(N3CCCCC3)CCCCC2)cc1` here?
A: 737 cells

Source: PubChem BioAssay AID1656 (Sanford-Burnham Center for Chemical Genomics, 2009)
